This passage reports binding results from article doi:10.1101/2021.10.20.465084.

No constants are given. Whether binding was seen depends on the method and setting. Some results given as binding are weak or reduced against the parent protein; the word gives no strength.

This assay concerns the target preformed IAPP fibrils (human). Description: negative-stain electron microscopy.

B1: Prefoldin from Pyrococcus horikoshii (PhPFD-α2β4 heterohexamer, 86.4 kDa) (complex, UniProt O58263 1-148; O58268 1-117)
chain 1: MAQNNKELEKLAYEYQVLQAQAQILAQNLELLNLAKAEVQTVRETLENLKKIEEEKPEILVPIGAGSFLKGVIVDKNNAIVSVGSGYAVERSIDEAIGFLEKRLKEYDEAIKKTQGALAELEKRIGEVARKAQEVQQKQSMTSFKVKK
chain 2: MQNIPPQVQAMLGQLDTYQQQLQLVIQQKQKVQADLNEAKKALEEIETLPDDAQIYKTVGTLIVKTTKEKAVQELKEKIETLEVRLNALNRQEQKINEKVKELTQKIQAALRPPTAG
Turning to B1, the binding entry is given as “binds”.
